In publication PMC11418137:
Results are given in words; binding and its absence hold for the method and conditions named. In cells and extracts the contact can be indirect.

Sequences of proteins named here, by UniProt entry; tags and fusion partners are left off. A change or cut given only in a name is not applied to a line headed by its entry. Residues count along the entry.
UniProt P31358: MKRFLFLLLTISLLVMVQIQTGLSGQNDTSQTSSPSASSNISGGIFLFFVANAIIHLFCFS
UniProt P06127, residues 25-495: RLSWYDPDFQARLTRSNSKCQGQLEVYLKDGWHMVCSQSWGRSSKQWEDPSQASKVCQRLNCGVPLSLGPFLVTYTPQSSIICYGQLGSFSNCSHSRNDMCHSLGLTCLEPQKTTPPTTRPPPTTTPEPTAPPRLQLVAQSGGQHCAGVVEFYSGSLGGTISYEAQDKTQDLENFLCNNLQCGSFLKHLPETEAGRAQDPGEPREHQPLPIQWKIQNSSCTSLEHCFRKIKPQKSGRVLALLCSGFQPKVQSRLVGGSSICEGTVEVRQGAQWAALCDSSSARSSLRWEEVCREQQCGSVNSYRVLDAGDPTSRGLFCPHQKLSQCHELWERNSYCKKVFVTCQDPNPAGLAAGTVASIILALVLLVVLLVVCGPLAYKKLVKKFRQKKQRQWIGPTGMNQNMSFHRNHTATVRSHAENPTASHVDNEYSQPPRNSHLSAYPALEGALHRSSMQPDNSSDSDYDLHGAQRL

Biological target: T1, membrane-bound CD52 of CD4+ T cells (human (endogenous in CD4+ T cells of patients)) (UniProt P31358)
T1 sequence: GQNDTSQTSSPS
Test: FRET or BRET; AD CD4+ T cells stained with FITC-conjugated CD3ε, CD4, TCRβ or CD5 antibodies and DABCYL-conjugated anti-CD52 antibody or IgG1, in HBSS with or without 1 mM EDTA, fixed; read by flow cytometry (n = 3); Förster radius 6.2 nm

CD5 of CD4+ T cells (from UniProt P06127 25-495)
binding: no binding
